Experimental data: PubChem BioAssay AID504804 (Drosophila RNAi Screening Center, 2011)
Test: 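Knock-downs shielding fly cells from apoptosis caused by DNA damage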 (primary screen). System: Drosophila Kc cells. Reagent: long dsRNA against Drosophila genes, 0.5 µg dsRNA per well. Duration: 96 h (48 h knock-down, then 48 h drug). Treatment: doxorubicin 5 µg/ml for 48 h, added 48 h after dsRNA. Measurement: 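Luminescent ATP counts per replicate, not normalised, reflecting viable cells after 48 h dsRNA knock-down followed by 48 h of 5 µg/ml doxorubicin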. Direction: raw ATP luminescence: higher = more viable cells, protection from doxorubicin. Call rule: 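Active when both duplicate wells lie at least 2 SD above the plate mean and protection is confirmed by rescreening and independent dsRNAs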.
The deposit covers about 19,000 reagents; this is a random part of those that have a named target and a result. Of all reagents, 47 (0.25%) got an active call. 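Signals are raw, not normalised; exact z-scores behind calls not deposited; actives needed confirmation, so some wells reaching 2 SD are inactive.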 A plus sign joins genes that one reagent is predicted to hit.

CG14743 (GeneID 35860) [DRSC06479] → raw ATP luminescence, replicate 1 = 39207; raw ATP luminescence, replicate 2 = 74347; Call = inactive
CG32248 (GeneID 317938) [DRSC08102] → raw ATP luminescence, replicate 1 = 1.33e5; raw ATP luminescence, replicate 2 = 1.81e5; Call = inactive
CG13358 (GeneID 31029) [DRSC18534] → raw ATP luminescence, replicate 1 = 49900; raw ATP luminescence, replicate 2 = 52510; Call = inactive
lwr (GeneID 33226) [DRSC00828] → raw ATP luminescence, replicate 1 = 1.06e5; raw ATP luminescence, replicate 2 = 85277; Call = inactive
cv (GeneID 44510) [DRSC17833] → raw ATP luminescence, replicate 1 = 38600; raw ATP luminescence, replicate 2 = 50680; Call = inactive
CG7634 (GeneID 40394) [DRSC11843] → raw ATP luminescence, replicate 1 = 70393; raw ATP luminescence, replicate 2 = 63280; Call = inactive
CAH1 + Adat1 [DRSC02009] → raw ATP luminescence, replicate 1 = 76510; raw ATP luminescence, replicate 2 = 62793; Call = inactive
CG2200 (GeneID 32258) [DRSC19840] → raw ATP luminescence, replicate 1 = 2.94e5; raw ATP luminescence, replicate 2 = 2.94e5; Call = inactive
Cyp4e3 (GeneID 34291) [DRSC03306] → raw ATP luminescence, replicate 1 = 35127; raw ATP luminescence, replicate 2 = 63693; Call = inactive
CG7094 (GeneID 35065) [DRSC03005] → raw ATP luminescence, replicate 1 = 86073; raw ATP luminescence, replicate 2 = 83373; Call = inactive
tpr (GeneID 37486) [DRSC04468] → raw ATP luminescence, replicate 1 = 66283; raw ATP luminescence, replicate 2 = 77140; Call = inactive
RfC3 (GeneID 34423) [DRSC03411] → raw ATP luminescence, replicate 1 = 40043; raw ATP luminescence, replicate 2 = 71647; Call = inactive
ppk5 (GeneID 2768987) [DRSC11492] → raw ATP luminescence, replicate 1 = 64303; raw ATP luminescence, replicate 2 = 77780; Call = inactive

Continued (5 carried over from the part before).
Cyp4e3 (GeneID 34291) [DRSC03306] → raw ATP luminescence, replicate 1 = 35127; raw ATP luminescence, replicate 2 = 63693; Call = inactive
CG7094 (GeneID 35065) [DRSC03005] → raw ATP luminescence, replicate 1 = 86073; raw ATP luminescence, replicate 2 = 83373; Call = inactive
tpr (GeneID 37486) [DRSC04468] → raw ATP luminescence, replicate 1 = 66283; raw ATP luminescence, replicate 2 = 77140; Call = inactive
RfC3 (GeneID 34423) [DRSC03411] → raw ATP luminescence, replicate 1 = 40043; raw ATP luminescence, replicate 2 = 71647; Call = inactive
ppk5 (GeneID 2768987) [DRSC11492] → raw ATP luminescence, replicate 1 = 64303; raw ATP luminescence, replicate 2 = 77780; Call = inactive
CG43078 (GeneID 38981) [DRSC10292] → raw ATP luminescence, replicate 1 = 39863; raw ATP luminescence, replicate 2 = 41227; Call = inactive
CG43078 (GeneID 38981) [DRSC10608] → raw ATP luminescence, replicate 1 = 59077; raw ATP luminescence, replicate 2 = 47490; Call = inactive
nis (GeneID 33337) [DRSC00290] → raw ATP luminescence, replicate 1 = 91790; raw ATP luminescence, replicate 2 = 78960; Call = inactive
mRpL45 (GeneID 42671) [DRSC16146] → raw ATP luminescence, replicate 1 = 53360; raw ATP luminescence, replicate 2 = 55510; Call = inactive
CR15280 (GeneID 3885605) [DRSC01953] → raw ATP luminescence, replicate 1 = 67007; raw ATP luminescence, replicate 2 = 60980; Call = inactive
CSN3 (GeneID 40308) [DRSC11859] → raw ATP luminescence, replicate 1 = 60343; raw ATP luminescence, replicate 2 = 55793; Call = inactive
aqrs (GeneID 43396) [DRSC14724] → raw ATP luminescence, replicate 1 = 50580; raw ATP luminescence, replicate 2 = 30050; Call = inactive
PpD6 (GeneID 49780) [DRSC00774] → raw ATP luminescence, replicate 1 = 23303; raw ATP luminescence, replicate 2 = 26480; Call = inactive
Adgf-A (GeneID 39976) [DRSC10566] → raw ATP luminescence, replicate 1 = 38163; raw ATP luminescence, replicate 2 = 28357; Call = inactive
CG8321 (GeneID 36287) [DRSC07148] → raw ATP luminescence, replicate 1 = 66573; raw ATP luminescence, replicate 2 = 54933; Call = inactive
CG11357 (GeneID 38561) [DRSC08183] → SD above plate mean = 2 to 3 SD above plate mean; raw ATP luminescence, replicate 1 = 1.06e5; raw ATP luminescence, replicate 2 = 1.30e5; Call = inactive
kcc (GeneID 37800) [DRSC04316] → raw ATP luminescence, replicate 1 = 68043; raw ATP luminescence, replicate 2 = 60980; Call = inactive
kcc (GeneID 37800) [DRSC04516] → raw ATP luminescence, replicate 1 = 62230; raw ATP luminescence, replicate 2 = 52877; Call = inactive
SmydA-2 (GeneID 40075) [DRSC10296] → raw ATP luminescence, replicate 1 = 78757; raw ATP luminescence, replicate 2 = 66063; Call = inactive
Mnr (GeneID 33098) [DRSC20549] → raw ATP luminescence, replicate 1 = 2.87e5; raw ATP luminescence, replicate 2 = 2.69e5; Call = inactive
Mnr (GeneID 33098) [DRSC20550] → raw ATP luminescence, replicate 1 = 4.28e5; raw ATP luminescence, replicate 2 = 2.91e5; Call = inactive
ktub (GeneID 37400) [DRSC04551] → raw ATP luminescence, replicate 1 = 71773; raw ATP luminescence, replicate 2 = 67610; Call = inactive
CG11298 (GeneID 37553) [DRSC04100] → raw ATP luminescence, replicate 1 = 83800; raw ATP luminescence, replicate 2 = 40270; Call = inactive
firl (GeneID 34627) [DRSC02428] → raw ATP luminescence, replicate 1 = 72383; raw ATP luminescence, replicate 2 = 74813; Call = inactive
CG2750 (GeneID 32179) [DRSC19867] → raw ATP luminescence, replicate 1 = 4.31e5; raw ATP luminescence, replicate 2 = 3.86e5; Call = inactive
ArgRS (GeneID 32539) [DRSC20138] → raw ATP luminescence, replicate 1 = 3.04e5; raw ATP luminescence, replicate 2 = 2.39e5; Call = inactive
SF2 (GeneID 53443) [DRSC16845] → raw ATP luminescence, replicate 1 = 56640; raw ATP luminescence, replicate 2 = 52400; Call = inactive
CG17199 (GeneID 42401) [DRSC15192] → raw ATP luminescence, replicate 1 = 35230; raw ATP luminescence, replicate 2 = 35290; Call = inactive
